# Data reported in PubChem BioAssay AID588590 (National Center for Advancing Translational Sciences (NCATS), 2011).
# Chains of the proteins cited; added tags and fusions are not shown. Lines headed by an entry give the natural chain unless they say otherwise; changes in a name come on top.
# UniProt Q9UNA4: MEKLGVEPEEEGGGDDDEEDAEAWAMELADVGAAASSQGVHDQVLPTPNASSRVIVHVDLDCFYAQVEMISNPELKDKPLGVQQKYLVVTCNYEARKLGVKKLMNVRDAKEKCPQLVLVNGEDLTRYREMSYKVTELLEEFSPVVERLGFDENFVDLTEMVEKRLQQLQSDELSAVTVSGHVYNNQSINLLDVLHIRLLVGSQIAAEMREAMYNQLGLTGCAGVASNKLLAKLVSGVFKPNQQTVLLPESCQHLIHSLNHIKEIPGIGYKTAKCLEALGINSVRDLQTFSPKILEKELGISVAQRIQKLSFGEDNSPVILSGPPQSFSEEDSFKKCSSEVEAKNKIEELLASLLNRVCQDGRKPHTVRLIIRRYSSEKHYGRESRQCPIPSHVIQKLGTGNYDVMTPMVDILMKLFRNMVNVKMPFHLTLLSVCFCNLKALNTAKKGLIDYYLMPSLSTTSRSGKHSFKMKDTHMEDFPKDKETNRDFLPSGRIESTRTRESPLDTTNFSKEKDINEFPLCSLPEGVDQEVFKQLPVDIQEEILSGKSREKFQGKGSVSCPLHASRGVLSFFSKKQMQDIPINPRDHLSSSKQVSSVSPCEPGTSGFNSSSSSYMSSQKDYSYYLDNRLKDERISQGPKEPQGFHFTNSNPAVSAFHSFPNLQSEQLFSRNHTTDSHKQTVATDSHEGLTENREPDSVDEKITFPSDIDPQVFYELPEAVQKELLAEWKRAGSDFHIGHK
# Several values for one entry are separate records, joined by “and”; a condition that tells them apart may be missing. Equal entries are not always repeated. In all, about 390,000 compounds went through this assay and about 4,000 (1%) were called active. Inconclusive results, whose numbers are uncertain, are shown with a selection of clear calls. The call rests on the fitted dose curve; in most records, active means well fitted inhibition curve with a large enough effect; inconclusive means small, poorly fitted or top-dose-only effect, or another doubt; inactive means no such curve, though single readings can be large or run the other way. Potencies beside an inconclusive call are fits to weak or partial responses and may not hold up.
# Target: DNA polymerase iota (Homo sapiens) (UniProt Q9UNA4)
# Test: qHTS for Inhibitors of Polymerase Iota
# Conditions: Pol iota fluorescent replication assay, 10 min; series mostly up to 115 µM; activity, negative = inhibition: at the top concentration
# In short: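 Pol iota at 10 nM preincubated 15 min with compounds at room temperature; reaction started with fluorescent substrate, 50 nM final. Fluorescence read kinetically at 0 and 10 min; buffer-only wells as negative control.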
# Potency means the concentration at half of the fitted maximal effect.
SMILES,"activity, negative = inhibition",Potency
CN(C)CCN(Cc1ccccc1)S(=O)(=O)c1ccc2[nH]c(=O)ccc2c1,inactive: 15.6%,–
CC12CC(NC(=O)N1c1cccc(C(=O)NCc3ccc4c(c3)OCO4)c1)c1cc(Cl)ccc1O2 (centres undefined),–,"inconclusive: 7.94 µM [inhibitor, full curve, poor fit]"
COc1ccccc1-n1ncc2c(=O)[nH]c(SCC(=O)Nc3ccc(Cl)cc3)nc21,inactive: 31.2%,–
COc1cc(-c2nc(Cn3nnc(C(=O)Nc4ccccc4)c3C)c(C)o2)cc(OC)c1OC,inactive: -6.57%,–
CC(C)C[C@@H](CNCC(=O)[C@H](C)NC(=O)c1[nH]cnc1C(=O)N[C@@H](C)CN)NC(=O)c1nc[nH]c1C(=O)N[C@@H](Cc1ccccc1)C(=O)O,–,"inconclusive: 39.8 µM [inhibitor, partial curve, poor fit]"
Cc1ccc(S(=O)(=O)N2CCCC2)s1,inactive: -9.26%,–
CSc1ccccc1NC(=O)CN(C)C(=O)COc1cccc2cccnc12,–,"inconclusive: 28.2 µM [inhibitor, single point]"
COc1ccc(N2CC(C(=O)NC3CCSC3=O)CC2=O)cc1 (centres undefined),inactive: 14.1%,–
O=C1Nc2ccccc2/C1=C/c1cnc(-c2ccccc2)[nH]1,–,"inconclusive: 10 µM [inhibitor, partial curve, poor fit]"
CCC(c1nnnn1CS(=O)(=O)c1ccc(C)cc1)N1CCC(C(N)=O)CC1 (centres undefined),–,"inconclusive: 35.5 µM [inhibitor, partial curve]"
Cn1c(O)c(/C=C2\C=Nc3ccccc32)sc1=Nc1ccc(C(=O)O)cc1,–,"inconclusive: 50.1 µM [inhibitor, partial curve]"
COc1cccc(C(=O)Nc2ccccc2C(=O)OCc2cc(=O)n3nc(C4CC4)sc3n2)c1,inactive: -2.28%,–
Cc1c(C(=O)N2CCCC2)oc2c1-c1nn(CC(=O)NCCCOC(C)C)cc1CC2,–,"inconclusive: 35.5 µM [inhibitor, single point] and inconclusive: 39.8 µM [inhibitor, single point]"
CCOC(=O)/C(=C\c1cccnc1)C(=O)c1cc(C(C)=O)c(Nc2ccccc2)s1,–,"inconclusive: 25.1 µM [inhibitor, partial curve, poor fit]"
Cc1ccccc1CN1C(=O)/C(=C\c2ccc(C(=O)NCCN3CCOCC3)cc2)Sc2ccccc21,–,"inconclusive: 50.1 µM [inhibitor, partial curve]"
COc1cc2cc(Oc3ccc4ccc(=O)oc4c3)c(=O)oc2cc1OC1OC(COC(=O)CC(C)(O)CC(=O)O)C(O)C(O)C1O (centres undefined),–,active: 50.1 µM
O=C(/C=C/c1ccc(O)c(O)c1)NC(=O)c1ccccc1O,–,"inconclusive: 17.8 µM [inhibitor, full curve, poor fit]"
O=C(O)CCN1C(=O)C(=C2CCCCCC2)SC1=S,–,"inconclusive: 17.8 µM [inhibitor, partial curve, poor fit]"
NC(=O)CC[C@@H]1NC(=O)[C@H](CO)NC(=O)c2cc([N+](=O)[O-])cc(I)c2NCCC[C@@H](C(N)=O)NC(=O)[C@H](Cc2ccc(O)cc2)NC1=O,–,"inconclusive: 50.1 µM [inhibitor, single point]"
CCN(CC)c1ccc(N=Cc2ccccc2[N+](=O)[O-])cc1,–,"inconclusive: 35.5 µM [inhibitor, partial curve, poor fit]"

# Arranged by heavy-atom count (rising): some entries from above.
SMILES,"activity, negative = inhibition",Potency
Cc1ccc(S(=O)(=O)N2CCCC2)s1,inactive: -9.26%,–
O=C(/C=C/c1ccc(O)c(O)c1)NC(=O)c1ccccc1O,–,"inconclusive: 17.8 µM [inhibitor, full curve, poor fit]"
COc1ccc(N2CC(C(=O)NC3CCSC3=O)CC2=O)cc1 (centres undefined),inactive: 14.1%,–
CN(C)CCN(Cc1ccccc1)S(=O)(=O)c1ccc2[nH]c(=O)ccc2c1,inactive: 15.6%,–
CCC(c1nnnn1CS(=O)(=O)c1ccc(C)cc1)N1CCC(C(N)=O)CC1 (centres undefined),–,"inconclusive: 35.5 µM [inhibitor, partial curve]"
COc1ccccc1-n1ncc2c(=O)[nH]c(SCC(=O)Nc3ccc(Cl)cc3)nc21,inactive: 31.2%,–
Cc1ccccc1CN1C(=O)/C(=C\c2ccc(C(=O)NCCN3CCOCC3)cc2)Sc2ccccc21,–,"inconclusive: 50.1 µM [inhibitor, partial curve]"
COc1cc2cc(Oc3ccc4ccc(=O)oc4c3)c(=O)oc2cc1OC1OC(COC(=O)CC(C)(O)CC(=O)O)C(O)C(O)C1O (centres undefined),–,active: 50.1 µM
NC(=O)CC[C@@H]1NC(=O)[C@H](CO)NC(=O)c2cc([N+](=O)[O-])cc(I)c2NCCC[C@@H](C(N)=O)NC(=O)[C@H](Cc2ccc(O)cc2)NC1=O,–,"inconclusive: 50.1 µM [inhibitor, single point]"
CC(C)C[C@@H](CNCC(=O)[C@H](C)NC(=O)c1[nH]cnc1C(=O)N[C@@H](C)CN)NC(=O)c1nc[nH]c1C(=O)N[C@@H](Cc1ccccc1)C(=O)O,–,"inconclusive: 39.8 µM [inhibitor, partial curve, poor fit]"

# (cont.)

SMILES,"activity, negative = inhibition",Potency
O=C(NCc1ccc(Cl)cc1)c1cc([N+](=O)[O-])ccc1Cl,–,"inconclusive: 89.1 µM [inhibitor, single point]"
CCOc1ccc(C(=O)NC(=S)Nc2cc(C)ccn2)cc1[N+](=O)[O-],–,"inconclusive: 31.6 µM [inhibitor, single point]"
COc1ccc(CN2CCCCC2C)cc1OC (centres undefined),–,"inconclusive: 112 µM [inhibitor, single point]"
Cc1cccc(NC2=C(NCCO)C(=O)c3ccccc3C2=O)c1,–,"inconclusive: 39.8 µM [inhibitor, full curve]"
CC1CCC(NC(=O)c2ccc3c(c2)N(Cc2cccc(Cl)c2)C(=O)c2ccccc2S3(=O)=O)CC1 (centres undefined),inactive: -21.5%,–
Cc1ccc(-c2ccc(C(=O)NCc3ccccc3)o2)c2ccccc12,–,"inconclusive: 39.8 µM [inhibitor, single point]"
COc1ccc(C(=O)N/C(=C\c2ccccc2)C(=O)Nc2ccc(C(=O)NCC(=O)O)cc2)cc1,–,"inconclusive: 3.55 µM [inhibitor, full curve, poor fit]"
Cc1cc(C)cc(NC(=O)CSc2cc(C)[nH]c(=O)n2)c1,inactive: 14.4%,–
CCCC1=Nc2cc(C(=O)NC3CCCC3)ccc2Sc2ccc(C)cc21,–,"inconclusive: 89.1 µM [inhibitor, single point]"
Cn1c(=O)n(-c2ccc3c(c2)OCO3)c2nc(-c3ccccc3)nc(C(N)=O)c21,inactive: -6.98%,–
COc1ccc(C(NC(=O)/C=C/c2ccco2)c2ccc(OC)cc2)cc1,–,"inconclusive: 14.1 µM [inhibitor, partial curve, poor fit]"
COc1ccc(C)cc1NC(=O)c1ccc2c(SCC(=O)O)c3c(nc2c1)CCCC3,inactive: -15.2%,–
COc1ccc(-c2nc(Cn3c(SCc4ccccc4F)nc4ccncc43)c(C)o2)cc1,–,"inconclusive: 2.24 µM [inhibitor, partial curve, poor fit]"
O=C(OCC(=O)N1CCN(C(=O)COC(=O)c2ccccc2NCCO)CC1)c1ccccc1NCCO,–,"inconclusive: 100 µM [inhibitor, partial curve, poor fit]"
CCCCn1c(SCC(=O)Nc2cc(C)on2)nc2ccccc2c1=O,–,"inconclusive: 79.4 µM [inhibitor, single point]"
COc1ccc(-n2c(N)c(C(=O)NCc3cccnc3)sc2=S)cc1,–,"inconclusive: 112 µM [inhibitor, partial curve, poor fit]"
O=C(Nc1nc2ccccc2c(=O)s1)c1ccc(F)cc1Cl,–,"inconclusive: 10 µM [inhibitor, partial curve]"
CC(C)(C)CC(C)(C)N1CNC(=S)NC1,–,"inconclusive: 100 µM [inhibitor, single point]"
O=C(COC(=O)c1ccc(S(=O)(=O)N2CCCC2)cc1)NCc1ccccc1,–,"inconclusive: 1 µM [inhibitor, partial curve, poor fit]"
